# The supplement of paper PMC10338343
# ± gives the standard deviation. The list shows a part of the results, in another mix than the full data. Many entries were measured with a wide error.
# Tested on: EfPiwi piRISC loaded with piRNA #1 (26 nt)
# Assay: pre-steady-state target cleavage rate (min^-1); guide: piRNA #1 5'p-UGAGGUAGUAGGUUGUAUAGUAUCCA; MIWI and MILI are mouse PIWI proteins and EfPiwi is from a freshwater sponge; tags in brackets are library labels; higher = faster piRNA-guided slicing of the target
# Settings: auxiliary factor: 500 nM Ephydatia muelleri Gtsf1
# Procedure, shortened: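 Cleave-'n-Seq: a transcribed, DNA-blocked target RNA library (0.1 nM) was mixed with 1 nM active affinity-purified piRISC carrying one synthetic guide, with or without 500 nM GTSF1 partner protein, in HEPES–potassium acetate buffer at 33 °C for 0–8 or 0–960 min. Uncleaved targets were sequenced and normalised to depth and to weakly complementary targets. Three trials were pooled, and k3 was capped at 0.0001 min^-1. The pre-steady-state cleavage rate came from a burst-and-steady-state fit.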
row,Sequence,pre-steady-state target cleavage rate
1,GGAGAGGAUACUAUACAACGUACAACCUCA,0.00357 ± 0.0017
2,GGAGACCUUACUAUACUACCUACUUCCUCA,0.000522 ± 0.0042
3,GGAGAGGAACUAUACAACCUACUACCUCA,0.00746 ± 0.0049
4,GGAGACCUAUGAAUACAACCUACUACCCCA,0.00177 ± 0.0054
5,GGAGACCAUACUAUACUACCAACUACCUCA,0.000462 ± 0.008
6,GGAGACGAUAGUAUACAACCAACUACCUCA,0.00204 ± 0.003
7,GGAGACCUAUGUUAUCAACCUACUACCUCA,0.00119 ± 0.0074
8,GGAGACGAUACUAUACAACCUACUACCACA,0.00487 ± 0.0013
9,GGAGAGGAUACUAAACAACCUACAACCUCA,0.00196 ± 0.0019
10,GGAGACCAAACUAUAGAACCUACUACCUCA,0.00258 ± 0.0035
11,GGAGACCAUACUAUACAACCUACUUCCUGA,0.00388 ± 0.0027
12,GGAGACCUUACAAUACUACCUACUACCUCA,0.00133 ± 0.0036
13,GGAGACCAUACUUUACAACCUACUACCUGA,0.00591 ± 0.0031
14,GGAGACCAUACUAUAGAACCUACUACCUGA,0.00135 ± 0.0022
15,GGAGACCAUACUAUACAACCUACUGCCUCA,0.00606 ± 0.0025
16,GGAGACCUUACUAUACAUCCUACUACGUCA,0.00307 ± 0.0033
17,GGAGACCUAUCUAUACAACCUACUACCUGCA,0.00393 ± 0.0041
18,GGAGACGUUACUAUACUACCUACUACCUCA,0.00494 ± 0.0024
19,GGAGACCAUACUAAACUACCUACUACCUCA,0.00391 ± 0.0039
20,GGAGACCUAUGUAUACAACCUACUUGGUCA,0.000291 ± 0.0069

row,Sequence,pre-steady-state target cleavage rate
1,GGAGACCUAACUAUACAACCUACUACCACA,0.00545 ± 0.0034
2,GGAGAGGAUACUAUAGAACCUACUACCACA,0.00261 ± 0.0014
3,GGAGACCUAUCUAUACAUCCUACUACGUCA,0.00198 ± 0.0039
4,GGAGUGGAUACUAUACAACCAACAACCUCA,0.00217 ± 0.0016
5,GGAGACCUUACUAUACAACCUACAUCCUCA,0.00277 ± 0.0036
6,GGAGACCAUACUAUUGAACCUACUACCUCA,0.00213 ± 0.0029
7,GGAGAGCAUACUAUACAACCUACUAGCUCA,0.00355 ± 0.0022
8,GGAGACCUAUGUAUACAACCUACUACCCCA,0.00195 ± 0.0043
9,GGAGUGGAUACUAUAGAACCUACAACCUCA,0.00234 ± 0.0015
10,GGAGUGGAUACUAUACAAGGAACUACCUCA,0.00208 ± 0.0036
11,GGAGACGAUACUACUACAACCUACUACCUCA,0.0327 ± 0.012
12,GGAGUGGAUACUAUUCAACGUACUACCUCA,0.00373 ± 0.0014
13,GGAGACCUAUGUAUACAACCUACAUACCUCA,0.000953 ± 0.0079
14,GGAGACCUUAGUUUACAACCUACUACCUCA,0.00216 ± 0.0046
15,GGAGACCUAUGAUAUGAAGCUACUACGUCA,0.000768 ± 0.011
16,GGAGACCUUACUAUACAACCAACUUCCUCA,0.00218 ± 0.0043
17,GGAGACCAUUCUAUACAACCUUCUACCUCA,0.00336 ± 0.0032
18,GGAGACCUAUGUAUACAACCUACUAACCUCA,0.000663 ± 0.011
19,GGAGACCUUACUAUACAACCUACUCACCUCA,0.00199 ± 0.0063
20,GGAGAGGAUACUUUACAACCUACUACGUCA,0.00296 ± 0.0023

# Another view of some results above:
row	Sequence	pre-steady-state target cleavage rate
8	GGAGACCUAUGUAUACAACCUACUACCCCA	0.00195 ± 0.0043
9	GGAGUGGAUACUAUAGAACCUACAACCUCA	0.00234 ± 0.0015
10	GGAGUGGAUACUAUACAAGGAACUACCUCA	0.00208 ± 0.0036
11	GGAGACGAUACUACUACAACCUACUACCUCA	0.0327 ± 0.012
12	GGAGUGGAUACUAUUCAACGUACUACCUCA	0.00373 ± 0.0014
13	GGAGACCUAUGUAUACAACCUACAUACCUCA	0.000953 ± 0.0079
14	GGAGACCUUAGUUUACAACCUACUACCUCA	0.00216 ± 0.0046
15	GGAGACCUAUGAUAUGAAGCUACUACGUCA	0.000768 ± 0.011
16	GGAGACCUUACUAUACAACCAACUUCCUCA	0.00218 ± 0.0043
17	GGAGACCAUUCUAUACAACCUUCUACCUCA	0.00336 ± 0.0032
18	GGAGACCUAUGUAUACAACCUACUAACCUCA	0.000663 ± 0.011
